Binding data for 1 substance are collected here from article PMC5078790.

Chains of the proteins cited; added tags and fusions are not shown.
UniProt Q60631: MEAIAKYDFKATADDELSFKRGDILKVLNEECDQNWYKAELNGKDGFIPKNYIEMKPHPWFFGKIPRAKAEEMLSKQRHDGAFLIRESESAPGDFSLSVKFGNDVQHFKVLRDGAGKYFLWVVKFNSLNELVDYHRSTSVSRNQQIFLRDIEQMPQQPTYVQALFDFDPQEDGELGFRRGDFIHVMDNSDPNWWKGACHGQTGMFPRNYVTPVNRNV

These are yes or no findings as the source states them, for the method shown. In cells and extracts the contact can be indirect. Some entries that bind do so weakly or less than the wild type.

The experiment addresses Grb2 (mouse (endogenous in MEFs)) (UniProt Q60631). In words: co-IP; anti-Grb2 antibodies, 3 hours at 4 °C, Dynabeads protein G; lysates of dab2 HET and CKO MEFs on days 0, 1, 4, 9 of adipose differentiation; NP-40 IP buffer (1% NP-40, 150 mM NaCl, 50 mM Tris-HCl, 10 mM EDTA, pH 8.0); Western blot of Dab2, Sos1 and Grb2.

On to Sos1 (from UniProt Q62245 1-1319), for which the binding result was “binds”.
